Record: PubChem BioAssay AID686937 (Drosophila RNAi Screening Center, 2013)

- Aim: 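Genes in the fly needed for secretion of protein constitutively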 (primary screen)
- System: Drosophila S2 cells expressing secreted horseradish peroxidase
- Knock-down reagent: long dsRNA against Drosophila genes
- Time to read-out: about 5.5 days (5 days dsRNA, then 12 h reporter induction)
- Conditions: reporter expression induced after 5 days of dsRNA, read 12 h later; inducer not stated
- Measured: 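After 5 days of dsRNA and 12 h of reporter induction, medium peroxidase read by chemiluminescence and scored as per-plate z-score; higher values mean more reporter released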
- Direction: z-score: higher = more reporter secreted into medium
The screen tested about 23,000 reagents; this is an unselected part of those that have a named target and a result. 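Reduced-secretion tags in replicate 1 do not always agree with the z-scores; no criterion for assigning the tags was given.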 A plus sign joins genes that one reagent is predicted to hit. Further read-outs or replicates are left out here. Not stated in the record: the amount of reagent.

| target gene | amplicon | z-score, replicate 1 | z-score, replicate 2 | z-score, replicate 3 |
| --- | --- | --- | --- | --- |
| Alg12 | DRSC16416 | 0.33 | 0.32 | – |
| Nlg4 | DRSC15108 | 0.55 | 0.65 | – |
| Nlg4 | DRSC15109 | 0.25 | 0.12 | – |
| Nlg4 | DRSC15700 | 0.27 | 0.25 | – |
| Nlg4 | DRSC15701 | -0.43 | -0.62 | – |
| Nlg4 | DRSC22243 | -1.14 | -0.23 | – |
| Syx4 | DRSC18586 | 0.14 | 0.37 | – |
| Klp61F | DRSC08671 | -2.05 | -1.5 | – |
| CG9626 | DRSC16525 | 0.38 | 0.12 | – |
| CG31815 | DRSC01548 | 0.03 | 0.22 | – |
| GluClalpha | DRSC16680 | 0.23 | 0.41 | – |
| Acn | DRSC02062 | 0.6 | 0.44 | – |
| Pis | DRSC20178 | 0.1 | 0.19 | – |
| bcn92 | DRSC18741 | 0.15 | 0.38 | – |
| HP4 | DRSC10958 | 0.38 | 0.29 | – |
| CG1622 | DRSC19745 | -0.47 | 0.25 | – |
| CG13622 | DRSC14624 | 0.4 | 0.35 | – |
| CG5004 | DRSC19929 | 0.6 | 0.74 | – |
| CG5004 | DRSC19930 | 0.08 | -0.56 | – |
| CG5004 | DRSC20123 | -2.87 | -1.99 | – |
| CG33333 | DRSC13233 | -0.01 | 0.25 | – |
| l(2)dtl | DRSC04697 | -0.77 | -1.3 | – |
| CG10164 | DRSC14197 | -0.6 | 0.07 | – |
| CG31807 | DRSC01550 | -0.04 | 0.52 | – |
| asp | DRSC16903 | 0.41 | 0.29 | – |
| CG14963 | DRSC08422 | 0.47 | 0.18 | – |
| CG18284 | DRSC02661 | 0.06 | 0.23 | – |
| CG18284 | DRSC20756 | 0.23 | -0.17 | – |
| BckdhB | DRSC21183 | 0.17 | 0.19 | – |

Look-ups from above:
For “z-score, replicate 2”, l(2)dtl [DRSC04697] has -1.3
Result for CG14963 [DRSC08422] in “z-score, replicate 2”: 0.18
Entry for Nlg4 [DRSC15700] in “z-score, replicate 2”: 0.25
CG18284 [DRSC20756], z-score, replicate 2: -0.17

The listing continues.
| target gene | amplicon | z-score, replicate 1 | z-score, replicate 2 | z-score, replicate 3 |
| --- | --- | --- | --- | --- |
| CG33453 | DRSC05782 | 0.33 | 0.42 | – |
| CG5254 | DRSC18611 | 0.38 | 0.34 | – |
| CG31036 | DRSC15055 | 0.2 | 0.5 | – |
| CG31036 | DRSC15057 | 0.1 | 0.06 | – |
| CG2247 | DRSC19844 | 0.21 | 0.32 | – |
| Qsox3 | DRSC16096 | 0.11 | 0.26 | – |
| Acf | DRSC14101 | 0.42 | 0.61 | – |
| CG9586 | DRSC03270 | 0.31 | 0.26 | – |
| CG1602 | DRSC06601 | 0.54 | 0.4 | – |
| Nhe3 | DRSC03380 | 0.17 | -0.02 | – |
| baz | DRSC20309 | 0.21 | 0.06 | – |
| Ank | DRSC17127 | 0.66 | 0.44 | – |
| ple | DRSC11383 | -0.08 | -0.12 | – |
| CG7182 | DRSC10780 | 0.54 | 0.28 | – |
| Ziz | DRSC02506 | 0.16 | 0.19 | – |
| Ziz | DRSC02976 | 0.13 | 0.29 | – |
| TfIIFbeta | DRSC16884 | 0.3 | 0.38 | – |
| TfIIFbeta | DRSC21447 | -1.69 | -1.06 | – |
| prg | DRSC03324 | 0.91 | 0.67 | – |
| Pa1 | DRSC19422 | 0.43 | 0.04 | – |
| Dad | DRSC16642 | -0.04 | 0.27 | – |
| CG31248 | DRSC22722 | 0.17 | 0.11 | – |
| CG18473 | DRSC16381 | 0.13 | -0.35 | – |
| CG2006 + Spase12 | DRSC14316 | -0.55 | -0.94 | – |
| swaPsi | DRSC21685 | -0.67 | -0.12 | – |
| CG31924 | DRSC00689 | 0.17 | 0.26 | – |
| Nup133 | DRSC16150 | -6.09 | -0.72 | – |
| CG14634 | DRSC17944 | 0.21 | 0.31 | – |
| Gcna | DRSC18553 | 0.32 | 0.3 | – |
| CG9815 | DRSC04567 | -0.94 | -0.53 | – |
| sha | DRSC06331 | 0.41 | 0.22 | – |
| CG8768 | DRSC07259 | 0.41 | 0.38 | – |
| Usp47 | DRSC11313 | -0.07 | 0.06 | – |
| CG33230 | DRSC08602 | 0.32 | 0.56 | – |
| CheB93a | DRSC15044 | 0.24 | 0.29 | – |
| Reps | DRSC02940 | 0.1 | 0.16 | – |
| CG11068 | DRSC19369 | 0.36 | 0.3 | – |
| Cdlc2 | DRSC00743 | -0.26 | -0.4 | – |
| CG15139 (retired record) | DRSC02439 | -0.09 | -0.27 | – |
| CG10947 | DRSC02111 | 0.19 | 0.18 | – |
| CycY | DRSC02420 | -0.21 | 0.17 | – |
| ERp60 | DRSC07309 | -0.33 | -0.19 | – |
| mars | DRSC06656 | -0.12 | 0.11 | 0.43 |
| Nup160 | DRSC02774 | -3 | -4.41 | – |
| CG8500 | DRSC16434 | -0.01 | -0.1 | – |
| CG34256 | DRSC09582 | 0.6 | 0.6 | – |
| CG6283 | DRSC16009 | 0.36 | 0.48 | – |
| CG17683 | DRSC21160 | -1.03 | -0.1 | – |
| Hrs | DRSC00549 | 0.38 | 0.49 | – |
| eIF3c | DRSC06905 | -3.14 | -1.74 | – |
| CG6770 | DRSC02992 | 0.2 | -0.03 | 0.46 |
| Vps2 | DRSC14886 | -3.3 | -4.18 | – |
| Dll | DRSC04610 | -0.05 | 0.12 | – |
